Our source for the IC50 values is EP4847499A1, “HETEROCYCLIC COMPOUND FOR INDUCING DEGRADATION OF KRAS PROTEIN” (dated 2026).

pIC50: −log10 of the molar value. Structures were worked out from names or drawings and are uncertain.

What all share (assay): Non-anchorage-dependent cell growth inhibition, spheroid 3D cell culture (CellTiter Glo 2.0)
In general terms: In ATP-based viability assays light output follows the ATP content of the culture.

Assay [1] concerns human G12D mutant KRAS-positive pancreatic cancer line PK-59. The settings on record: read-out: G12D (PK-59) IC50; PK-59, 3D spheroid, 6 days. From the text:
(§1) Test Example 2: Evaluation of non-anchorage-dependent cell growth inhibitory effect on human G12V mutant KRAS-positive pancreatic cancer line PA-TU-8902, human G12D mutant KRAS-positive pancreatic cancer line PK-59, human G12C mutant KRAS-positive pancreatic cancer line MIA PaCa-2, human G12C mutant KRAS-positive lung cancer line NCI-H358, human G12D mutant KRAS-positive colorectal cancer line GP2d, human G13D mutant KRAS-positive colorectal cancer line LoVo, or human wild-type KRAS gene amplification-positive gastric cancer line MKN1 The non-anchorage-dependent cell growth inhibitory effect of test compounds was evaluated by spheroid 3D cell culture.
(§2) PA-TU-8902 cells or GP2d cells (ECACC, 95090714), Pk-59 cells (RIKEN BRC, RCB1901), MIA PaCa-2 cells (RIKEN BRC, RCB2094), NCI-H358 cells (ATCC, CRL-5807), LoVo cells (ATCC, CCL-229), or MKN1 cells (JCRB, JCRB0252) were seeded on low-cell-adhesive round bottom 384-well plates (Prime Surface: from Sumitomo Bakelite) at 36 µL/well to give 5 × 10^2 cells per well, and the PA-TU-8902 cells were cultured under the same conditions as in Test Example 1. The GP2d cells were cultured using DMEM medium containing 10% fetal bovine serum in the presence of 5% CO2 at 37°C. The PK-59 cells, MIA PaCa-2 cells, LoVo cells, NCI-H358 cells, or MKN1 cells were cultured using RPMI-1640 medium (from Sigma-Aldrich) containing 10% fetal bovine serum in the presence of 5% CO2 at 37°C.
(§3) The next day, the test compounds (10 points having final concentrations in the range of 10 µM to 0.03 nM) and DMSO, which was the solvent for the test compounds, as a negative control were diluted 100-fold with a fresh medium and were added at 4 µL to each well containing the PA-TU-8902 cells, PK-59 cells, MIA PaCa-2 cells, LoVo cells, NCI-H358 cells, or MKN1 cells. After culturing in the presence of 5% CO2 at 37°C for 6 days, CellTiter Glo 2.0 (from Promega) was added at 20 µL per well. After stirring with a plate mixer at room temperature for 1 hour, the luminescent signals were measured with ARVO X3 (from PerkinElmer).
(§4) With the signaling value in treatment with DMSO taken as a survival rate of 100% and with the signaling value in the medium alone without cells taken as a survival rate of 0%, the 50% inhibitory concentration (IC50) was calculated by Sigmoid-Emax model nonlinear regression analysis.

The test system of assay [2] is human G13D mutant KRAS-positive colorectal cancer line LoVo. The settings on record: read-out: G13D (LoVo) IC50, 3D spheroid, 6 days.
Text: as §1, §2, §3, §4

Assay [3] concerns human G12C mutant KRAS-positive pancreatic cancer line MIA PaCa-2. The settings on record: read-out: G12C (MIA PaCa-2) IC50; MIA PaCa-2, 3D spheroid, 6 days.
Text: as §1, §2, §3, §4

For assay [4], the system named is human G12V mutant KRAS-positive pancreatic cancer line PA-TU-8902. The settings on record: read-out: G12V (PA-TU-8902) IC50; PA-TU-8902, 3D spheroid, 6 days.
Text: as §1, §2, §3, §4

Turning to `CO[C@@H](C)COc1nc(N2CC[C@H]2C(N)=O)c2cc(C3CC3)c(-c3c(C)c(F)cc4[nH]ncc34)c(OCc3ccc(C(=O)N4CCC5(CCC(CCOc6nccc(N7CCC(=O)NC7=O)c6F)CC5)CC4)cc3)c2n1`, the pIC50 (as a rule, the negative decadic logarithm of the IC50, by convention in mol/L) in assay [1] is 7.96; in assay [2] it was 7.41; in assay [3], 8.01; in assay [4], 7.89.
In the case of `Cc1c(F)cc2[nH]ncc2c1-c1c(C2CC2)cc2c(N3CC[C@H]3C(N)=O)nc(OCC(C)(C)CN(C)C)nc2c1OCc1ccc(C(=O)N2CCC3(CC2)CN(c2cc4c(cc2F)c(N2CCC(=O)NC2=O)nn4C)CCO3)cc1`, the pIC50 is 7.96 in assay [1], 6.89 in assay [2], 8.55 in assay [3] and 7.96 in assay [4].
Turning to `CCN1CCN(c2nc(N3CC[C@H]3C(N)=O)c3cc(C4CC4)c(-c4c(C)c(F)cc5[nH]ncc45)c(OCc4ccc(C(=O)N5CCC6(CCC(CC#Cc7cncc(N8CCC(=O)NC8=O)c7)CC6)CC5)cc4)c3n2)C[C@@H]1C`, the pIC50 in assay [1] was 8.22; in assay [2], 7.51; in assay [3] it was 8.54; in assay [4], 7.92.
For `Cc1c(F)cc2[nH]ncc2c1-c1c(C2CC2)cc2c(N3CC[C@H]3C(N)=O)nc(OCC(C)(C)CN3CCOCC3)nc2c1OCc1ccc(C(=O)N2CCC3(CCN(CC#Cc4cc(N5CCC(=O)NC5=O)ccn4)CC3)CC2)cc1`, in that order: 8.13, 7.49, 8.68 and 8.23.
For `Cc1c(F)cc2[nH]ncc2c1-c1c(C2CC2)cc2c(N3CC[C@H]3C(N)=O)nc(OCC(C)(C)CN(C)C)nc2c1OCc1ccc(C(=O)N2CCC3(CCC(C(O)C#Cc4cccc(N5CCC(=O)NC5=O)c4)CC3)CC2)cc1` (stereo partly drawn), in that order: 7.52, 6.92, 8.17 and 7.68.
For `Cc1c(F)cc2[nH]ncc2c1-c1c(C2CC2)cc2c(N3CC[C@H]3C(N)=O)nc(N3CCC(CN(C)C)CC3)nc2c1OCc1ccc(C(=O)N2CCC3(CCC(CCOc4cncc(N5CCC(=O)NC5=O)c4)CC3)CC2)cc1`, in that order: 7.82, 7.04, 8.38 and 7.80.
Consider `Cc1c(C#CCC2CCC3(CC2)CCN(C(=O)c2ccc(COc4c(-c5c(C)c(F)cc6[nH]ncc56)c(C5CC5)cc5c(N6CC[C@H]6C(N)=O)nc(N6CCN(C)[C@@H](C)C6)nc45)cc2)CC3)cncc1N1CCC(=O)NC1=O`, for which the negative-log IC50 (pIC50) is 7.89 in assay [1], 7.26 in assay [2], 8.29 in assay [3] and 7.70 in assay [4].
Consider `Cc1c(F)cc2[nH]ncc2c1-c1c(C2CC2)cc2c(N3CC[C@H]3C(N)=O)nc(N3CCC4(CCN(C)C4)CC3)nc2c1OCc1ccc(C(=O)N2CCC3(CCC(CCOc4cncc(N5CCC(=O)NC5=O)c4)CC3)CC2)cc1`, for which the pIC50 in assay [1] is 7.52; in assay [2], 6.64; in assay [3] it was 8.16; in assay [4], 7.54.
On to `Cc1c(F)cc2[nH]ncc2c1-c1c(C2CC2)cc2c(N3CC[C@H]3C(N)=O)nc(OCC(C)(C)CN(C)C)nc2c1OCc1ccc(C(=O)N2CCC3(CC2)CCC(O)(CC#Cc2cccc(N4CCC(=O)NC4=O)c2F)CC3)cc1`, for which the pIC50 in assay [1] is 8.02; in assay [2], 7.12; in assay [3], 8.34; in assay [4], 7.70.
In the case of `COCCN1CCC(Oc2nc(N3CC[C@H]3C(N)=O)c3cc(C4CC4)c(-c4c(C)c(F)cc5[nH]ncc45)c(OCc4ccc(C(=O)N5CCC6(CC5)CCN(C5(COc7nccc(N8CCC(=O)NC8=O)c7C)CC5)CC6)cc4)c3n2)CC1`, the pIC50 is 7.12 in assay [1], 6.17 in assay [2], 7.74 in assay [3] and 7.44 in assay [4].
In the case of `Cc1c(F)cc2[nH]ncc2c1-c1c(C2CC2)cc2c(N3CC[C@H]3C(N)=O)nc(OCC(C)(C)CN(C)C)nc2c1OCc1ccc(C(=O)N2CCC3(CCC(CCCn4cc(N5CCC(=O)NC5=O)cn4)CC3)CC2)cc1`, the pIC50 was 7.92 in assay [1], 7.38 in assay [2], 8.52 in assay [3] and 8.17 in assay [4].
`Cc1c(F)cc2[nH]ncc2c1-c1c(C2CC2)cc2c(N3CC[C@H]3C(N)=O)nc(OC3CCN(C)CC3)nc2c1OCc1ccc(C(=O)N2CCC3(CCC(CC#Cc4cncc(N5CCC(=O)NC5=O)c4)CC3)CC2)cc1`: the pIC50 was 7.39 in assay [1], 6.77 in assay [2], 7.96 in assay [3] and 7.39 in assay [4].
With `Cc1c(F)cc2[nH]ncc2c1-c1c(C2CC2)cc2c(N3CC[C@H]3C(N)=O)nc(OCC(C)(C)CO)nc2c1OCc1ccc(C(=O)N2CCC3(CCC(CCOc4cncc(N5CCC(=O)NC5=O)c4)CC3)CC2)cc1`, the pIC50 was 8.32 in assay [1], 7.40 in assay [2], 8.55 in assay [3] and 8.24 in assay [4].
On to `Cc1c(F)cc2[nH]ncc2c1-c1c(C2CC2)cc2c(N3CC[C@H]3C(N)=O)nc(OCC(C)(C)CN(C)C)nc2c1OCc1ccc(C(=O)N2CCC3(CC2)CCN(C(C)(C)C#Cc2cccc(N4CCC(=O)NC4=O)c2)CC3)cc1`, for which the negative logarithm of the IC50 (pIC50) is 7.41 in assay [1], 6.72 in assay [2], 7.96 in assay [3] and 7.60 in assay [4].
With `Cc1c(F)cc2[nH]ncc2c1-c1c(C2CC2)cc2c(N3CC[C@H]3C(N)=O)nc(OCC3(CN(C)C)CCC3)nc2c1OCc1ccc(C(=O)N2CCC3(CCC(CCOc4cncc(N5CCC(=O)NC5=O)c4)CC3)CC2)cc1`, the pIC50 is 7.74 in assay [1], 7.33 in assay [2], 7.62 in assay [3] and 7.49 in assay [4].
As for `Cc1c(N2CCC(=O)NC2=O)ccnc1OCCN1CCC2(CC1)CCN(C(=O)c1ccc(COc3c(-c4c(C)c(F)cc5[nH]ncc45)c(C4CC4)cc4c(N5CCC5C(N)=O)nc(OCC(C)(C)CN5CCC(F)C5)nc34)cc1)CC2` (stereo not drawn), the negative logarithm of the IC50 (pIC50) is 8.11 in assay [1], 7.55 in assay [2], 8.80 in assay [3] and 8.70 in assay [4].
`Cc1c(F)cc2[nH]ncc2c1-c1c(C2CC2)cc2c(N3CC[C@H]3C(N)=O)nc(OCC(C)(C)CN(C)C)nc2c1OCc1ccc(C(=O)N2CCC3(CCC(CCOc4nnc(N5CCC(=O)NC5=O)n4C)CC3)CC2)cc1`: the pIC50 in assay [1] was 7.77; in assay [2], 6.64; in assay [3], 8.03; in assay [4] it was 7.70.
On to `Cc1c(F)cc2[nH]ncc2c1-c1c(C2CC2)cc2c(N3CC[C@H]3C(N)=O)nc(N3CC(F)(CN(C)C)C3)nc2c1OCc1ccc(C(=O)N2CCC3(CCC(CCOc4cncc(N5CCC(=O)NC5=O)c4)CC3)CC2)cc1`, for which the pIC50 in assay [1] is 8.25; in assay [2], 7.46; in assay [3] it was 8.66; in assay [4], 8.14.
Consider `CN(C)CC(C)(C)COc1nc(N2CC[C@H]2C(N)=O)c2cc(C3CC3)c(-c3cc(O)cc(F)c3C3CC3)c(OCc3ccc(C(=O)N4CCC5(CC4)CN(c4cc6c(cc4F)c(N4CCC(=O)NC4=O)nn6C)CCO5)cc3)c2n1` (single isomer, unassigned), for which the pIC50 was 7.18 in assay [1], 6.80 in assay [2], 8.14 in assay [3] and 7.74 in assay [4].
Consider `Cc1c(F)cc2[nH]ncc2c1-c1c(C2CC2)cc2c(N3CC[C@H]3C(N)=O)nc(OCC(C)(C)CN(C)C)nc2c1OCc1ccc(C(=O)N2CC3(CCN(CC#Cc4cccc(N5CCC(=O)NC5=O)c4)CC3)C2)cc1`, for which the pIC50 in assay [1] was 7.77; in assay [2], 6.70; in assay [3], 8.02; in assay [4], 7.52.
Regarding `COC1(CCOc2cccc(N3CCC(=O)NC3=O)c2)CCC2(CCN(C(=O)c3ccc(COc4c(-c5c(C)c(F)cc6[nH]ncc56)c(C5CC5)cc5c(N6CC[C@H]6C(N)=O)nc(OCC(C)(C)CN(C)C)nc45)cc3)CC2)CC1`, the pIC50 in assay [1] was 8.24; in assay [2], 7.29; in assay [3], 8.41; in assay [4] it was 7.96.
